Drawing on PMC8384837, this text covers binding signal (log2 enrichment (interaction score)) for 3 sequences.

Changes are numbered by the printed parent chain. Some of the results follow. For some of these results: At the low end of the ranking, values are background and their order means little. For some of these results: Construct or isoform of the protein are uncertain. Bounds are passed on as bounds.

Common to all, as to conditions: yeast three-hybrid, YBZ-1, SC-Leu-His + 0.5 mM 3-AT, 4 days
The target of assay [1] is T1, PUM1 PUF domain R1-QFR R2-VFQ R7-NPG S863Q + R864F + Q867R + N899V + Y900F + S1079N + N1080P + E1083G (UniProt Q14671).
T1 sequence: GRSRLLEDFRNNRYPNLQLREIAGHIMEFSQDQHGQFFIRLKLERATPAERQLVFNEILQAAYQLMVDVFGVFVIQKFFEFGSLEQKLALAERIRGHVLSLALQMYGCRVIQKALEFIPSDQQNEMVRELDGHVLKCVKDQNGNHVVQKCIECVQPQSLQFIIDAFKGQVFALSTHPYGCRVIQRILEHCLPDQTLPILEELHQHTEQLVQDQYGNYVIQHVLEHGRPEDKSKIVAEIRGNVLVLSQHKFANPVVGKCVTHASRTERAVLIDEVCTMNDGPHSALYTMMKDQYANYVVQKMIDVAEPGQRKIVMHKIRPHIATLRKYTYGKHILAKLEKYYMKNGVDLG

Assay [2] addresses T2, PUM1 PUF domain R3-THE R4-TFR C935T + R936H + Q939E + N971T + H972F + Q975R (UniProt Q14671).
T2 sequence: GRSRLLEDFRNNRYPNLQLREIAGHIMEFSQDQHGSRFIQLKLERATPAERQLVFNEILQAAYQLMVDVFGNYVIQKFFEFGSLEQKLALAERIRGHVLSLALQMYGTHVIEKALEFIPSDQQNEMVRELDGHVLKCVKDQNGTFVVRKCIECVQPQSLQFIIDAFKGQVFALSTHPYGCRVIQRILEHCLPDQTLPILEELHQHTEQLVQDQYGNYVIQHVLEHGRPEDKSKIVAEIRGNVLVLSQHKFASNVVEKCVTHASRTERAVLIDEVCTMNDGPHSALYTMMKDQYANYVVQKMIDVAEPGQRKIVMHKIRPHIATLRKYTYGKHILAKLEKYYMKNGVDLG

For assay [3], the target named is T3, PUM1 PUF domain R2-VFQ R3-THE R4-TFR N899V + Y900F + C935T + R936H + Q939E + N971T + H972F + Q975R (UniProt Q14671).
T3 sequence: T2 sequence with N72V, Y73F

The target in assay [4] is T4, PUM1 PUF domain R5-PHQ R6-SWD C1007P + R1008H + N1043S + Y1044W + Q1047D (UniProt Q14671).
T4 sequence: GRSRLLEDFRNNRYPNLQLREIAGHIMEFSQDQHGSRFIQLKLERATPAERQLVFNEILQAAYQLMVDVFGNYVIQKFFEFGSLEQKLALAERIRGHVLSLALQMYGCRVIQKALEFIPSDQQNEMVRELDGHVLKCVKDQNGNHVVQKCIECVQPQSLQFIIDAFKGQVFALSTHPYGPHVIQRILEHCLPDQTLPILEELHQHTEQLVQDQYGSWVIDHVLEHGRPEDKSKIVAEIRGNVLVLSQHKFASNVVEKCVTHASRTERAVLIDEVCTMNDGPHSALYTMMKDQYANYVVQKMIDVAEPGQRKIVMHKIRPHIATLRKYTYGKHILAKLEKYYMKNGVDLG

Regarding “GGCUAGAACUAGUGGAUCCCCCGGCGCCCGGCGGCUCGAGCCCGGGUAAGCUCAAGAAGUCUGCAUGCCGCCGGGCGCCAUGCCUGCAGGUCGACUCUAGAAAACAUG”, the binding signal (log2 enrichment (interaction score)) in assay [1] is < -5.42; in assay [2], -8.03.

With “GGCUAGAACUAGUGGAUCCCCCGGCGCCCGGCGGCUCGAGCCCGGGUAAGGCGACAAAGUCUGCAUGCCGCCGGGCGCCAUGCCUGCAGGUCGACUCUAGAAAACAUG”, the binding signal (log2 enrichment (interaction score)) in assay [1] is -4.87; in assay [2] it was -6.78.

For the sequence “GGCUAGAACUAGUGGAUCCCCCGGCGCCCGGCGGCUCGAGCCCGGGUAAGUGAACCAAGUCUGCAUGCCGCCGGGCGCCAUGCCUGCAGGUCGACUCUAGAAAACAUG”, the binding signal (log2 enrichment (interaction score)) is < -5.6 in assay [1], -5.4 in assay [3] and -7.38 in assay [4].
